{"source": "paper PMC11645656", "about": "“MRGPRX4 mediates phospho-drug associated pruritus in a humanized mouse model” (Science translational medicine, 2024)", "tested_on": "MRGPRX4-expressing HEK293 cells (Gαq signaling pathway)", "test": "Pharmacological blocker experiments: phospho-drug evoked calcium response in MRGPRX4-expressing HEK293 cells after inhibitor preincubation; note: test concentration or dose not given here", "conditions": "+ YM254890", "note": "Values joined by “and” are separate entries in the source; they are usually repeats but may differ in a detail not shown here. Equal entries are not always repeated. This continues a long series; more values of the same kind are listed elsewhere.", "data": [{"smiles": "O=C1NC(c2ccccc2)(c2ccccc2)C(=O)N1COP(=O)(O)O", "note": "[Fosphenytoin]", "values": [{"measurement": "calcium response trace, fig. S2B", "setting": "Time 85.9136 s", "value": "1.037 (2×) and 1.026 (2×) and 1.007 and 1.02 and 1.028"}, {"measurement": "calcium response trace, fig. S2B", "setting": "Time 88.4176 s", "value": "1.026 and 1.02 and 1.014 and 1.022 and 1.015 and 1.0295 and 1.045"}, {"measurement": "calcium response trace, fig. S2B", "setting": "Time 90.9336 s", "value": "1.027 and 0.9997 and 1.024 and 1.0132 and 1.032 and 1.042"}, {"measurement": "calcium response trace, fig. S2B", "setting": "Time 93.4144 s", "value": "1.029 (2×) and 1.007 and 1.003 and 1.02 and 1.021 and 1.036"}, {"measurement": "calcium response trace, fig. S2B", "setting": "Time 95.908 s", "value": "1.025 and 1.019 and 1.008 and 1.023 and 1.016 and 1.029 and 1.03"}, {"measurement": "calcium response trace, fig. S2B", "setting": "Time 98.4016 s", "value": "1.028 and 1.017 and 1.002 and 1.014 and 1.027 and 1.037"}, {"measurement": "calcium response trace, fig. S2B", "setting": "Time 100.895 s", "value": "1.033 and 1.013 and 1.001 and 1.012 (2×) and 1.0249"}, {"measurement": "calcium response trace, fig. S2B", "setting": "Time 103.389 s", "value": "1.014 and 1.0103 and 1.008 and 1.02 and 1.021 and 1.024 and 1.04"}, {"measurement": "calcium response trace, fig. S2B", "setting": "Time 105.892 s", "value": "1.024 (2×) and 1.011 and 1.004 and 1.016 and 1.022 and 1.034"}, {"measurement": "calcium response trace, fig. S2B", "setting": "Time 108.406 s", "value": "1.026 and 1.019 and 0.9963 and 1.016 (2×) and 1.023 and 1.034"}, {"measurement": "calcium response trace, fig. S2B", "setting": "Time 110.9 s", "value": "1.022 and 1.011 and 1.006 and 1.017 and 1.0054 and 1.028 and 1.035"}, {"measurement": "calcium response trace, fig. S2B", "setting": "Time 113.413 s", "value": "1.021 and 1.014 and 0.9988 and 1.017 and 1.0213 and 1.031 and 1.022"}, {"measurement": "calcium response trace, fig. S2B", "setting": "Time 115.917 s", "value": "1.015 (2×) and 1.007 and 1.027 and 1.0142 and 1.029 and 1.032"}, {"measurement": "calcium response trace, fig. S2B", "setting": "Time 118.43 s", "value": "1.017 and 1.009 and 0.9995 and 1.025 and 1.0269 and 1.026"}, {"measurement": "calcium response trace, fig. S2B", "setting": "Time 120.934 s", "value": "1.019 and 1.006 and 1.005 and 1.026 and 1.018 and 1.024 and 1.03"}, {"measurement": "calcium response trace, fig. S2B", "setting": "Time 123.45 s", "value": "1.017 and 1.008 and 0.9997 and 1.016 and 1.015 and 1.025 and 1.023"}, {"measurement": "calcium response trace, fig. S2B", "setting": "Time 125.93 s", "value": "1.02 and 1.005 and 0.9935 and 1.021 and 1.0114 and 1.019 and 1.022"}, {"measurement": "calcium response trace, fig. S2B", "setting": "Time 128.414 s", "value": "1.023 and 1.011 (2×) and 0.9952 and 1.016 and 1.013 and 1.029"}, {"measurement": "calcium response trace, fig. S2B", "setting": "Time 130.908 s", "value": "1.0129 and 1.007 and 0.9962 and 1.016 (2×) and 1.022 and 1.018"}, {"measurement": "calcium response trace, fig. S2B", "setting": "Time 133.402 s", "value": "1.018 (2×) and 1.004 and 0.997 and 1.017 and 1.014 and 1.024"}, {"measurement": "calcium response trace, fig. S2B", "setting": "Time 135.905 s", "value": "1.018 and 1.0081 and 0.9979 and 1.022 and 1.01 and 1.026 and 1.027"}, {"measurement": "calcium response trace, fig. S2B", "setting": "Time 138.41 s", "value": "1.018 and 1.005 and 0.9995 and 1.012 and 1.011 and 1.0235"}, {"measurement": "calcium response trace, fig. S2B", "setting": "Time 140.942 s", "value": "1.018 and 1 and 0.9918 and 1.023 and 1.015 and 1.02 and 1.021"}, {"measurement": "calcium response trace, fig. S2B", "setting": "Time 143.446 s", "value": "1.024 and 0.9919 and 0.9969 and 1.012 and 1.021 and 1.013"}, {"measurement": "calcium response trace, fig. S2B", "setting": "Time 145.949 s", "value": "1.0105 and 0.9955 and 0.9869 and 1.0179 and 1.022 and 1.013"}, {"measurement": "calcium response trace, fig. S2B", "setting": "Time 148.465 s", "value": "1.017 and 1.003 and 0.9924 and 1.018 and 1.013"}, {"measurement": "calcium response trace, fig. S2B", "setting": "Time 150.996 s", "value": "1.013 and 0.999 and 0.9975 and 1.02 and 1.004 and 1.015 and 1.014"}, {"measurement": "calcium response trace, fig. S2B", "setting": "Time 153.49 s", "value": "1.014 and 0.9955 and 0.9942 and 1.019 and 1.008 and 1.021 and 1.007"}, {"measurement": "calcium response trace, fig. S2B", "setting": "Time 156.003 s", "value": "1.011 and 0.9977 and 0.9849 and 1.012 and 1.014 and 1.021 and 1.018"}, {"measurement": "calcium response trace, fig. S2B", "setting": "Time 158.497 s", "value": "1.013 (2×) and 1.001 and 0.9926 and 1.016 and 1.007 and 1.021"}, {"measurement": "calcium response trace, fig. S2B", "setting": "Time 161 s", "value": "1.017 and 0.9982 and 0.9916 and 1.0112 and 1.007 and 1.016 and 1.014"}, {"measurement": "calcium response trace, fig. S2B", "setting": "Time 163.494 s", "value": "1.016 (2×) and 1.002 and 0.9923 and 1.007 and 1.006 and 1.015"}, {"measurement": "calcium response trace, fig. S2B", "setting": "Time 165.987 s", "value": "1.019 and 1.001 and 1 and 1.016 and 1.011 and 1.0092 and 1.017"}, {"measurement": "calcium response trace, fig. S2B", "setting": "Time 168.481 s", "value": "1.011 and 0.9958 and 0.9977 and 1.01 (2×) and 1.017 and 1.015"}, {"measurement": "calcium response trace, fig. S2B", "setting": "Time 170.974 s", "value": "1.01 and 0.9922 and 0.989 and 1.005 and 1.021 and 1.014"}, {"measurement": "calcium response trace, fig. S2B", "setting": "Time 173.488 s", "value": "1.011 and 0.9995 and 0.9904 and 1.006 and 1.013 and 1.022 and 1.018"}, {"measurement": "calcium response trace, fig. S2B", "setting": "Time 175.991 s", "value": "1.013 and 0.9925 and 0.9931 and 1.004 and 1.01 and 1.02 and 1.008"}, {"measurement": "calcium response trace, fig. S2B", "setting": "Time 178.505 s", "value": "1.004 and 0.9917 and 0.9911 and 1.011 and 1.02 and 1.012 (2×)"}, {"measurement": "calcium response trace, fig. S2B", "setting": "Time 181.018 s", "value": "1.009 (2×) and 0.9994 and 0.991 and 1.01 and 1.024 and 1.007"}, {"measurement": "calcium response trace, fig. S2B", "setting": "Time 183.532 s", "value": "1.013 (2×) and 0.9962 and 0.9954 and 1.006 and 1.016 and 1.002"}, {"measurement": "calcium response trace, fig. S2B", "setting": "Time 186.036 s", "value": "1.019 and 1.003 (3×) and 0.9973 and 1.018 and 1.013"}, {"measurement": "calcium response trace, fig. S2B", "setting": "Time 188.549 s", "value": "1.007 and 0.9911 and 0.9942 and 1.015 and 1.0145 and 1.0075"}, {"measurement": "calcium response trace, fig. S2B", "setting": "Time 191.053 s", "value": "1.01 and 0.9867 and 0.9983 and 1.009 and 1.011 (2×) and 1.006"}, {"measurement": "calcium response trace, fig. S2B", "setting": "Time 193.556 s", "value": "1.015 and 0.9909 and 0.9953 and 1.006 and 1.007 and 1.021 and 1.009"}, {"measurement": "calcium response trace, fig. S2B", "setting": "Time 196.05 s", "value": "1.0074 and 0.997 and 0.9992 and 1.016 and 1.014 (2×) and 1.005"}, {"measurement": "calcium response trace, fig. S2B", "setting": "Time 198.533 s", "value": "1.015 and 0.9912 and 0.9942 and 1.009 and 1.007 and 1.02 and 1.005"}]}]}
